Screening data, single-dose tests

Sequences of proteins named here, by UniProt entry; tags and fusion partners are left off. Residues count along the entry.
UniProt Q4DA54, 1-478: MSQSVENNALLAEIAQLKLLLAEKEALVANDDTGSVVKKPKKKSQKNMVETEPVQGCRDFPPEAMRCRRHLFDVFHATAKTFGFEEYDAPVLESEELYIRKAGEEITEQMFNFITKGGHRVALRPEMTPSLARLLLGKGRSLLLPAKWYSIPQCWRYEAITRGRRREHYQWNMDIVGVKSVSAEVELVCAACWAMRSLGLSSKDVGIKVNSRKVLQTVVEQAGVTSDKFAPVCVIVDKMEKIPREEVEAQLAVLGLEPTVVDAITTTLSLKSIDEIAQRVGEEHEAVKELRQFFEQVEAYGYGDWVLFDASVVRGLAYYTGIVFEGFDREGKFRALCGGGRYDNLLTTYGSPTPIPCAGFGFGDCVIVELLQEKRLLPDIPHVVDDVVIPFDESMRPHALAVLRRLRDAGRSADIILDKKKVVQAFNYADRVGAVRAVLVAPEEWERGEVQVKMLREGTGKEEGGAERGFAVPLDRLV
UniProt A4I591, 1-473: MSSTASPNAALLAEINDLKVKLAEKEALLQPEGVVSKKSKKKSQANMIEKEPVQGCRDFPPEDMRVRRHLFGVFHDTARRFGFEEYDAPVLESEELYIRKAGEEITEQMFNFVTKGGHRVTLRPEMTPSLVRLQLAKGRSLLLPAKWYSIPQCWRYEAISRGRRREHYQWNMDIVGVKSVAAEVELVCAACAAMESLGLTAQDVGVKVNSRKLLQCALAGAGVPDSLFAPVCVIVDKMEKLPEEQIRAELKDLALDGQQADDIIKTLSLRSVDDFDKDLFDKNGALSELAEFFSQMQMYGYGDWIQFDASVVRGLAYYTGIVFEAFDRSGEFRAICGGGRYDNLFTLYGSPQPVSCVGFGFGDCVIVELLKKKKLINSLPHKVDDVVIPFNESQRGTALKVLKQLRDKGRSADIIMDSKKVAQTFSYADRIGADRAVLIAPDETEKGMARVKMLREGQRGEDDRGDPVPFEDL
UniProt Q8IDJ8, 1-583: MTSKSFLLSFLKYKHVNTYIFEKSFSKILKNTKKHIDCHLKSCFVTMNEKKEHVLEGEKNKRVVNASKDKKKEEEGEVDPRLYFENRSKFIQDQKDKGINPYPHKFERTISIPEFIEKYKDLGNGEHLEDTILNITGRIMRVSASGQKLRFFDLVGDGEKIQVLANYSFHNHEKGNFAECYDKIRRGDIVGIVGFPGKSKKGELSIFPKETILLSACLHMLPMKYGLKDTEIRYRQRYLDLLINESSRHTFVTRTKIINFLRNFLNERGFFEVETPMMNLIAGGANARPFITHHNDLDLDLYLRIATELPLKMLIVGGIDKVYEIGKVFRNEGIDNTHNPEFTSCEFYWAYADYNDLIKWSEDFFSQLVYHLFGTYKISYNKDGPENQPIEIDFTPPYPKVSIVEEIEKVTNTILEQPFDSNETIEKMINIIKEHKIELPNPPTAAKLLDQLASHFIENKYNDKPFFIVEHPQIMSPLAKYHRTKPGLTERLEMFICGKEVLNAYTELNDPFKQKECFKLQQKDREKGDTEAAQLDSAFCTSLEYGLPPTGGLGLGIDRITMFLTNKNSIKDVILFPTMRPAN

Source: ChEMBL document CHEMBL3988442, “University of Dundee, Small-Polar-MMV Screening Library” (2021).

Each number is a percent effect as filed. The controls that fix the scale are not given in the record; negative values are as filed. The compounds are a random part of those screened.

TcHisRS: 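Histidine-tRNA ligase, Trypanosoma cruzi CL Brener (UniProt Q4DA54). Enzyme assay of histidyl-tRNA synthetase; the read-out is not stated. Tested at 30 µM. The record gives no direction; compounds that gave an IC50 in retests scored well above the rest, so higher reads as stronger inhibition. Of about 69,000 compounds tested this way, about 31 (0.045%) reached 50% or more in at least one test.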
LiHisRS: 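Histidine-tRNA ligase, Leishmania infantum (UniProt A4I591). Enzyme assay of histidyl-tRNA synthetase; the read-out is not stated. Concentration: 30 µM. Higher reads as stronger inhibition (inferred: compounds with an IC50 in retests scored well above the rest). The assay is labelled LdHisRS but filed under L. infantum. Size under these conditions: about 69,000 compounds, about 410 of them at 50% or above in at least one test.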
PfKRS1: 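Lysine-tRNA ligase, Plasmodium falciparum 3D7 (UniProt Q8IDJ8). Enzyme assay of the cytosolic lysyl-tRNA synthetase in 384-well plates, read by luminescence. Concentration: 30 µM. Direction is inferred from only a few compounds that gave an IC50; most scored high, so higher reads as stronger inhibition. Size under these conditions: about 69,000 compounds, about 49 of them at 50% or above in at least one test.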

| Compound | TcHisRS | LiHisRS | PfKRS1 |
|---|---|---|---|
| `CCOC(=O)CCNC(=O)N1CCOC(Cc2cccc(OC)c2)C1` (stereo not drawn) | 5.195% | 0% | -0.5258% |
| `Cn1nccc1C(=O)N1CCN(C(=O)C2CCC2)[C@@H]2CS(=O)(=O)C[C@@H]21` | 3.352% | -5.208% | 5.205% |
| `Cc1ccc(N2CCC3(CCN(C(=O)C4CCOC4)CC3)CC2)nn1` (stereo not drawn) | 6.952% | 24.79% | 0.02098% |
| `CN(C)S(=O)(=O)Nc1ccc(-n2nccc2C(F)(F)F)cc1` | 5.882% | 7.563% | 1.574% |
| `CCOc1cc(CN(C)CCC(=O)OC)ccc1OC(F)F` | 0.4484% | 5.882% | -2.178% |
| `COCCC(=O)N1CCC(Nc2ncc(Cl)cn2)CC1` | 4.865% | 13.7% | 5.141% |
| `c1cc(-c2cnc(C3CCNCC3)cn2)n[nH]1` | 1.88% | 2.837% | -3.646% |
| `CCc1csc(CNc2nc3c(s2)c(C)nn3C)n1` | -5.435% | 19.74% | -4.034% |
| `Cc1occc1C(=O)N1CCC2(CCCN(CC3CC3)C2=O)C1` (stereo not drawn) | 0% | 9.589% | 2.746% |
| `Cc1ccc(CNCCS(=O)(=O)N2CCOCC2)cc1C` | 3.093% | 12.9% | 8.341% |
| `C=C(C)CN1CCC(n2cc(C3CCCC3)nn2)CC1` | 4.469% | 1.042% | 7.407% |
| `COCCc1noc(CN2CCCC2c2c(C)nn(C)c2C)n1` (stereo not drawn) | -2.642% | 12.16% | -3.051% |
| `O=C(NC1CCc2[nH]c(=O)ccc2C1)C1CCOCC1` (stereo not drawn) | 4.301% | -3.509% | -0.512% |
| `Cc1nn(C)c(N2CCOCC2)c1CNCc1ccc2c(c1)OCO2` | 2.624% | 11.5% | -0.4064% |
| `CCCc1cc(C(=O)N(CC)Cc2ccncc2)[nH]n1` | 6.627% | 17.58% | 0.9293% |
| `CN1CCCC[C@@H]2[C@H]1[C@@H](c1ccccc1)CCN2C(=O)c1ccccn1` | 13.83% | 21.88% | 1.443% |
| `CCCN(CCC)S(=O)(=O)NC(C)C(=O)N(C)C` (stereo not drawn) | 4.902% | 6.667% | -4.082% |
| `O=c1[nH]c2nc(N3CCCCCC3)ncc2c(=O)n1-c1cccc(F)c1` | 6.211% | 17.5% | 7.152% |
| `CCCN1CCC(CNC(=O)C2(c3ccccc3)CCC2)C1` (stereo not drawn) | 2.89% | 18.75% | -0.7766% |
| `CCCN1CCN(C(=O)Nc2ccccc2Cl)[C@H]2CS(=O)(=O)C[C@H]21` | 2.146% | 8.197% | 7.154% |
| `O=S(=O)(C1CC1)N1CC[C@@H]2[C@@H]1CCN2Cc1cccs1` | 4.598% | 12% | 3.257% |
| `N#CCCN(Cc1ccccn1)C(=O)Nc1cccc(F)c1` | 2.618% | 13.79% | 8.635% |
| `CC(C)c1cc(N2CCC(NS(C)(=O)=O)C2)nc(C(C)C)n1` (stereo not drawn) | 3.96% | 6.522% | -4.461% |
| `N#CCCN(Cc1ccco1)C(=O)CN1CCCC1c1cccs1` (stereo not drawn) | -4.615% | 19.05% | 2.615% |
| `CC[C@@]1(O)CCN(C(=O)c2cccc3cc(C)oc23)C[C@H]1O` | -13.53% | 7.5% | -3.314% |
| `CCN(CC)C(=O)CCCNC(=O)c1csc(NC2CC2)n1` | 8.929% | 9.677% | 3.483% |
| `CCCc1nc(C)c(C(=O)NCCn2ccnc2)s1` | 1.19% | -2.222% | -0.4254% |
| `COc1ccc(OC)c(CNCc2c(C(C)C)nn(C)c2N(C)C)c1` | 9.412% | 20.18% | 0.2802% |
| `Cc1csc(N2CCN(Cc3nnsc3Cl)CC2C)n1` (stereo not drawn) | 4.094% | 18.42% | 3.758% |
| `CN1CCC(NN2CCN(C)CC2)CC1` | 3.665% | 2.151% | -0.6711% |
| `Cc1nnc(CSc2ccc(C(F)(F)F)cn2)o1` | -0.4926% | 9.091% | 9.445% |
| `O=C1CC(NS(=O)(=O)c2cccc(F)c2)CN1` (stereo not drawn) | 7.538% | 15.73% | 4.059% |
| `CN1CCC(C(=O)NCCC2CN(c3cnn(C)c(=O)c3)CCO2)CC1` (stereo not drawn) | 9.091% | 15.96% | 4.153% |
| `CCN(CCNCc1cccc(C#N)c1)C1CC1` | 3.03% | -1.587% | 4.431% |
| `O=C(c1ccc2nccn2c1)N(CCO)Cc1ccccc1F` | 0.5236% | 8.602% | 4.631% |
| `Cc1ccccc1Oc1ncccc1CNS(=O)(=O)N(C)C` | 4.082% | 11.29% | 1.09% |

3 of the entries, repeated:

- CCc1csc(CNc2nc3c(s2)c(C)nn3C)n1 : TcHisRS: -5.435%; LiHisRS: 19.74%; PfKRS1: -4.034%
- CCCc1cc(C(=O)N(CC)Cc2ccncc2)[nH]n1 : TcHisRS: 6.627%; LiHisRS: 17.58%; PfKRS1: 0.9293%
- CC[C@@]1(O)CCN(C(=O)c2cccc3cc(C)oc23)C[C@H]1O : TcHisRS: -13.53%; LiHisRS: 7.5%; PfKRS1: -3.314%